Laboratory results reported in PubChem BioAssay AID504444 (National Center for Advancing Translational Sciences (NCATS), 2011).
The campaign covered roughly 360,000 compounds. About 7,500 (2.1%) were called active. The inconclusive results got no clear call from the source; some entries with a clear call stand among them for comparison. The call rests on the fitted dose curve; in most records, active means well fitted inhibition curve with a large enough effect; inconclusive means small, poorly fitted or top-dose-only effect, or effect the other way; inactive means flat fitted curve, though single readings scatter. Potencies of inconclusive entries are doubtful fits and often do not repeat.

Assay: Nrf2 qHTS screen for inhibitors; further: nearly all actives have a fitted effect of over 60% in size
Conditions: A549 ARE-Fluc reporter, luciferase luminescence, 18-24 h; series mostly up to 46 µM
How it was run: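 Nrf2 function is reported as luminescence of an ARE-controlled luciferase in A549 cells. Compounds were tested at several concentrations, and a CellTiter-Fluor read on the same wells flagged cytotoxicity.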
Potency means the concentration at half of the fitted maximal effect.

SMILES | Potency
CC(C)(C)C1CCc2c(sc3nc(SCC(=O)O)nc(N)c23)C1 (centres undefined) | inconclusive: 18.4 µM [activator, single point]
CCC(=O)c1ccc(OCC(=O)Nc2cc(S(=O)(=O)N3CCCCC3)ccc2OC)cc1 | inconclusive: 25.9 µM [falling, partial curve]
CCOc1ccc(OCC)c(S(=O)(=O)NCCOC23CC4CC(CC(C4)C2)C3)c1 | inconclusive: 29.1 µM [falling, single point]
CCOCc1cc(CN2CCN(c3cccc(Cl)c3)CC2)c(O)c2ncccc12 | inconclusive: 16.4 µM [falling, single point]
CCc1ccccc1NS(=O)(=O)c1ccc2c(c1)OCC(C(=O)N1CCCC1)O2 (centres undefined) | inconclusive: 7.31 µM [falling, partial curve]
CC1CN(S(=O)(=O)c2cccc(C(=O)N(Cc3nnc(-c4ccccc4Cl)o3)C3CC3)c2)CC(C)O1 (centres undefined) | inactive
CC(C)[n+]1ccn(C2=C([O-])c3ccccc3C(=O)/C2=N\S(=O)(=O)c2ccccc2)c1 | active: 23.1 µM
Cc1onc(-c2ccccc2Cl)c1C(=O)Nc1sc2c(c1C#N)CCC2 | inconclusive: 32.6 µM [falling, single point]
CCC(=O)Oc1ccc2c(C)cc(=O)oc2c1C | inactive
CCOc1ccc(CNC(=O)c2ccc(Sc3ccc(Cl)cc3)c(NC(C)=O)c2)cc1OC | inconclusive: 23.1 µM [falling, single point]
Cc1ccc(CC2SC(=Nc3ccccc3)N(c3ccccc3)C2=O)cc1 (centres undefined) | inconclusive: 32.6 µM [falling, single point]
O=S(=O)(Nc1ccccc1)c1ccc(S(=O)(=O)N2CCCC2)cc1 | inconclusive: 16.4 µM [falling, partial curve, poor fit]
COc1ccc(NC(=O)/C=C/c2cccc(Br)c2)cn1 | active: 16.4 µM
COC(=O)c1ccc(-c2csc(NC(=O)c3ccc(S(=O)(=O)N4CCc5ccccc5C4)cc3)n2)cc1 | inactive
Oc1ccc(/C=N/Nc2nc(N3CCCCCC3)nc(N3CCCCCC3)n2)c(O)c1 | active: 14.6 µM
Cc1c(O)ccc(-c2[nH]ncc2-c2nc3ccccc3s2)c1O | inconclusive: 18.4 µM [falling, single point]
CCN(c1ccccc1)S(=O)(=O)c1cccc(C(=O)OCC(=O)Nc2ccc(NC(C)=O)cc2)c1 | inactive
Cc1ccccc1-c1nc2cc(NC(=O)COc3ccc(F)cc3)ccc2o1 | inactive
CC1=C(C(=O)Nc2ccc(C)cc2C)C(c2ccccc2)n2ncc(C(=O)Nc3ccccc3)c2N1 (centres undefined) | inactive
CCOC(=O)c1c(-c2ccccc2)csc1NC(=O)c1cc(-c2ccc(Cl)cc2)on1 | inactive
COc1cccc(N=c2oc3c(C)ncc(CO)c3cc2C(N)=O)c1 | inconclusive: 6.51 µM [falling, partial curve, poor fit]
Cc1csc2c(N3CCC(C(=O)O)CC3)ncnc12 | inactive

Three compounds picked at random from the list so far:
SMILES | Potency
CC(C)(C)C1CCc2c(sc3nc(SCC(=O)O)nc(N)c23)C1 (centres undefined) | inconclusive: 18.4 µM [activator, single point]
Cc1ccccc1-c1nc2cc(NC(=O)COc3ccc(F)cc3)ccc2o1 | inactive
CCN(c1ccccc1)S(=O)(=O)c1cccc(C(=O)OCC(=O)Nc2ccc(NC(C)=O)cc2)c1 | inactive

A different layout for some results above.
CCOCc1cc(CN2CCN(c3cccc(Cl)c3)CC2)c(O)c2ncccc12
  Potency: inconclusive: 16.4 µM [falling, single point]
CCc1ccccc1NS(=O)(=O)c1ccc2c(c1)OCC(C(=O)N1CCCC1)O2 (centres undefined)
  Potency: inconclusive: 7.31 µM [falling, partial curve]
CC1CN(S(=O)(=O)c2cccc(C(=O)N(Cc3nnc(-c4ccccc4Cl)o3)C3CC3)c2)CC(C)O1 (centres undefined)
  Potency: inactive

Later entries

SMILES | Potency
Cc1noc(C)c1-c1ccc2ncnc(NC3CCCc4ccccc43)c2c1 (centres undefined) | inconclusive: 32.6 µM [falling, single point]
Cc1c(CC(=O)NCCc2ccc(Cl)cc2)c(=O)oc2c(C)c3occ(C(C)(C)C)c3cc12 | inactive
COc1cccc(N(C(=O)c2nc3nccc(C)n3n2)c2nc3ccccc3s2)c1 | inconclusive: 29.1 µM [activator, single point]
O=C(Nc1cccc(Cl)c1)Nc1cnccn1 | inconclusive: 32.6 µM [falling, partial curve, poor fit]
COC(=O)C1=C(N)N(c2ccccc2C(F)(F)F)C2=C(C(=O)CCC2)C1c1ccc2c(c1)OCO2 (centres undefined) | inconclusive: 29.1 µM [falling, single point]
Cc1ccc(NC(=O)C2CCCN(S(=O)(=O)c3cccc4cccnc34)C2)c(C)c1 (centres undefined) | inactive
COc1ccc(CCC(=O)Nc2ccc(OC)c(S(=O)(=O)N3CCCCC3)c2)cc1OC | inconclusive: 18.4 µM [falling, single point]
O=C(NCc1cccnc1)c1cccc(S(=O)(=O)N2CCCCC2)c1 | inconclusive: 29.1 µM [falling, single point]
CCOC(=O)CSc1nc2ccc(NC(=O)c3ccccc3F)cc2s1 | inactive
COc1ccc(/C=C2\SC(=S)N(CCCC(=O)Nc3cc(C)on3)C2=O)cc1OC | inactive
CC(=O)C1=NN(c2ccccc2)C(c2cccs2)N1c1ccc(N(C)C)cc1 (centres undefined) | inconclusive: 20.6 µM [falling, single point]
Cn1cccc1C(=O)OCC(=O)N1CCN(c2ccccc2)CC1 | inconclusive: 29.1 µM [activator, single point]
C=CCc1ccccc1OCCn1nnc2ccccc21 | inconclusive: 2.06 µM [falling, partial curve, poor fit]
CNC(=O)C1CCC(Cn2c(=O)c3sccc3n(CC(=O)NCc3ccc(F)cc3)c2=O)CC1 (centres undefined) | inconclusive: 16.4 µM [activator, partial curve]
COc1cc(NC(=O)c2cnc(N)s2)cc(C(=O)Nc2cccc(C(F)(F)F)c2)c1 | inactive
O=C(C1CCCN(S(=O)(=O)c2ccc(Br)s2)C1)N1CCN(c2ccccc2)CC1 (centres undefined) | active: 16.4 µM
CC1CN(C(=O)CSc2nc(-c3ccc(F)cc3)cs2)CC(C)O1 (centres undefined) | inconclusive: 18.4 µM [falling, partial curve, poor fit]
COc1ccc(NC(=O)c2ccccc2NC(=O)CSc2ccc(Cl)cc2)cc1 | inconclusive: 20.6 µM [falling, single point]
CCOC(=O)c1c(Cc2ccc(Cl)cc2)c[nH]c1C | inconclusive: 29.1 µM [activator, single point]
C=Cc1ccc(Cn2c(C(=O)O)c(CNCc3ccccc3)c3ccc(C)cc32)cc1 | inconclusive: 23.1 µM [falling, single point]
CCc1nnc(NC(=O)C2CCN(S(=O)(=O)Cc3ccccc3)CC2)s1 | inconclusive: 32.6 µM [falling, partial curve, poor fit]
COc1cccc(OC)c1C(=O)Nc1nnc(C(C)C)s1 | inconclusive: 2.06 µM [falling, partial curve, poor fit]

SMILES | Potency
COc1ccc(CCN2CCCn3c2nc2c3c(=O)n(CC(C)C)c(=O)n2C)cc1OC | inconclusive: 7.31 µM [falling, partial curve, poor fit]
Cc1ccc(C(C(=O)NC2CCCCC2)N(C(=O)Cc2c[nH]c3ccccc23)c2ccccc2)o1 (centres undefined) | inconclusive: 29.1 µM [falling, single point]
CC1CCC(NC(=O)CCNC(=O)c2ccc(Br)cc2)CC1 (centres undefined) | inconclusive: 13 µM [activator, partial curve]
O=C(c1cccc([N+](=O)[O-])c1)c1ccc2[nH]c(=O)[nH]c2c1 | inconclusive: 29.1 µM [falling, single point]
COc1ccc(S(=O)(=O)Nc2cccc3c2O[C@H](CN(C)S(=O)(=O)c2ccc(Cl)cc2)[C@H](C)CN([C@H](C)CO)C3=O)cc1 | inconclusive: 29.1 µM [falling, single point]
CC(=O)Nc1ccc(NC(=O)c2oc3ccc4c(c3c2C)C(=O)CC(C)(C)O4)cc1 | inconclusive: 0.82 µM [activator, full curve]
CC(Oc1cccc(Cl)c1)C(=O)Nc1cc(Cl)ccc1N1CCOCC1 (centres undefined) | inconclusive: 25.9 µM [falling, single point]
CCC(=O)Oc1ccc(/C(CC)=C(\CC)c2ccc(OC(=O)CC)cc2)cc1 | inconclusive: 18.4 µM [falling, partial curve, poor fit]
CCCCOC(=O)C1=C(C)Nc2nnnn2C1c1ccccc1Cl (centres undefined) | inconclusive: 25.9 µM [falling, single point]
O=C(c1ccccc1)N1CCCCC(Sc2nnc3ccccn23)C1=O (centres undefined) | inconclusive: 13 µM [activator, partial curve, poor fit]
Cc1[nH]n(-c2ccccc2)c(=O)c1CCOC(=O)c1ccc(C(F)(F)F)cc1 | inconclusive: 25.9 µM [falling, single point]
COc1ccc(/C=C2/C(=O)OCc3cc(OC)c(OC)cc32)c(OC)c1 | inconclusive: 29.1 µM [activator, partial curve, poor fit]
CN(CCOc1cccc(C(F)(F)F)c1)Cc1ccccc1 | inconclusive: 0.58 µM [falling, partial curve, poor fit]
COc1cccc(CSc2nc3sc(C)c(C)c3c(=O)n2Cc2ccco2)c1 | inconclusive: 23.1 µM [falling, partial curve, poor fit]
C/C(=N/NC(=O)CNC(=O)C1COc2ccccc2O1)c1cccc(O)c1 (centres undefined) | inconclusive: 20.6 µM [activator, partial curve, poor fit]
COC(=O)c1c(C)oc2ccc(N(C(=O)c3ccncc3)S(=O)(=O)c3ccc(C)cc3)cc12 | active: 10.3 µM
COC(=O)CSc1nsc(SCC(=O)OC)c1C#N | inconclusive: 0.0046 µM [falling, full curve, poor fit]
Cc1cc(NC(=O)COc2ccccc2C)ccc1NC(=O)c1cccs1 | inconclusive: 29.1 µM [falling, single point]
N/C(=N\OC(=O)CCC1CCCC1)c1ccc(Br)cc1 | inconclusive: 20.6 µM [activator, single point]
Cc1ccccc1C(=O)N1CCN(c2ccc(NC(=O)c3cccs3)cc2)CC1 | inconclusive: 18.4 µM [falling, partial curve]
